# Test results taken from PubChem BioAssay AID1487 (National Center for Advancing Translational Sciences (NCATS), 2009).
# Some of the results follow. The main result of the screen is listed elsewhere. These columns were measured beside it and carry no call. Most of these compounds were active or inconclusive in the main read-out, so they are no random draw. Words in brackets tell the shape of the fitted curve; partial curves, single points and poor fits give uncertain potencies.
# Test: qHTS Assay for Modulators of Lamin A Splicing
# Conditions: HeLa LMNA splicing GFP/RFP minigene ratio, 48 h
# Method in brief: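 S3 HeLa cells stably expressing lamin A-EGFP splicing minigene plus DsRed2, 600 cells/well, 48 h compound exposure at 37C. Laser-scanning cytometry; analysed as GFP (500-530 nm)/RFP (575-640 nm) total intensity ratio; 0.5% DMSO vehicle.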
# [1] = measured here: GFP splicing reporter channel
# [2] = measured here: RFP viability control channel
smiles,measurement,setting,value
CCc1ccccc1NC(=S)N=Nc1c(O)n(C)c2ccc(S(=O)(=O)N3CCOCC3)cc12,AC50,[1],"3.16 µM [rising, full curve, poor fit]"
same,AC50,[2],"5.62 µM [rising, single point]"
CCn1c(Cc2ccc(OC)cc2)nnc1SCC(=O)N1CCN(c2ccccc2)CC1,AC50,[1],"20 µM [rising, single point]"
same,AC50,[2],"17.8 µM [rising, single point]"
Cc1cc(C)nc(NC(=O)c2c(C(=O)O)noc2C)n1,AC50,[1],"2.24 µM [falling, full curve, poor fit]"
same,AC50,[2],"3.98 µM [falling, full curve, poor fit]"
CCOC(=O)c1cc2c(=O)n3ccccc3nc2n(CCOC)c1=NC(=O)c1c(-c2c(F)cccc2Cl)noc1C,AC50,[2],"0.00316 µM [falling, full curve, poor fit]"
COc1ccc(S(=O)(=O)N2CCCCC2)cc1NC(=O)C1CCCO1 (configuration not stated),AC50,[1],"0.631 µM [falling, partial curve]"
same,AC50,[2],"0.251 µM [falling, partial curve]"
CCOC(=O)C1(Cc2ccccc2C(F)(F)F)CCN(C2CCC2)CC1,AC50,[1],"20 µM [falling, partial curve, poor fit]"
Cc1ccc(-n2ncc3c(NC4CCCCC4)ncnc32)cc1C,AC50,[1],"0.141 µM [falling, full curve, poor fit]"
Cc1ccc(C2C(C#N)=C(N)SC(N)=C2C#N)c(C)c1,AC50,[1],"35.5 µM [rising, single point]"
O=C(CN1CCCC1)N1CCCc2c1c(=O)oc1ccc(OCc3ccccc3)cc21,AC50,[1],"10 µM [rising, partial curve, poor fit]"
same,AC50,[2],"12.6 µM [rising, single point]"
Cc1onc(-c2c(F)cccc2Cl)c1C(=O)NC1C(=O)N2C1SC(C)(C)C2C(=O)O (configuration not stated),AC50,[2],"0.112 µM [falling, full curve, poor fit]"
O=C(O)C1CCCNC1 (configuration not stated),AC50,[2],"14.1 µM [falling, partial curve, poor fit]"
CCc1ncc(C(O)c2cccc(OC)c2OC)n1C (configuration not stated),AC50,[1],"35.5 µM [rising, single point]"
COc1ccc(-c2coc3cc4oc(=O)c5ccccc5c4cc23)cc1F,AC50,[2],"10 µM [rising, partial curve, poor fit]"
COc1cccc(S(=O)(=O)N2CCN(c3ccccc3F)CC2)c1,AC50,[2],"10 µM [rising, partial curve, poor fit]"
CO/N=C/C1CCN(c2ncc(C(F)(F)F)cc2Cl)C1=O (configuration not stated),AC50,[2],"0.126 µM [rising, full curve, poor fit]"
Cc1ccc(C2OCC3(CO)COC(c4ccc(C)cc4)N23)cc1 (configuration not stated),AC50,[1],"3.16 µM [falling, full curve]"
same,AC50,[2],"22.4 µM [falling, single point]"
COc1ccccc1CN1CCC(CNC(=O)c2cnn(-c3cccc(Cl)c3)c2C2CCN(C(=O)OC(C)(C)C)CC2)CC1,AC50,[1],"20 µM [falling, single point]"
same,AC50,[2],"35.5 µM [falling, single point]"
O=C(C1CC1)N(Cc1ccco1)c1nc(-c2ccccc2)cs1,AC50,[2],"35.5 µM [rising, single point]"
Cc1nc2c(C)cccc2cc1C(=O)N/N=C/c1cccnc1,AC50,[2],"10 µM [rising, partial curve, poor fit]"
O=C(CCNS(=O)(=O)c1ccc2c(c1)CCN2C(=O)C1CC1)Nc1ccc(Cl)cc1,AC50,[1],"0.891 µM [falling, full curve, poor fit]"
CCCCN(Cc1ccco1)C(=O)c1cc2c(=O)[nH]c3ccc(C)cc3c2s1,AC50,[1],"11.2 µM [rising, partial curve, poor fit]"
same,AC50,[2],"12.6 µM [rising, single point]"
O=S(=O)(c1ccccc1)N1CCN(C(=S)Nc2ccc(F)cc2)CC1,AC50,[2],"6.31 µM [rising, partial curve, poor fit]"
O=C1Nc2ccccc2/C1=C\c1cccn1-c1ccc(OC(F)(F)F)cc1,AC50,[1],"11.2 µM [rising, partial curve, poor fit]"
same,AC50,[2],"12.6 µM [rising, partial curve, poor fit]"
C[C@@]12CCC(=O)C=C1CC[C@H]1[C@H]3CC[C@](O)(C(=O)CO)[C@]3(C)CC(=O)[C@@H]12,AC50,[1],"0.501 µM [falling, full curve]"
same,AC50,[2],"0.562 µM [falling, full curve]"
COc1ccc(N2CCN(C(=O)c3noc4c3CCCCC4)CC2)cc1,AC50,[1],"11.2 µM [falling, partial curve]"
same,AC50,[2],"0.00224 µM [falling, full curve]"
Cc1cccc(Cc2cnc(N3C(=N)SC(c4ccccc4)C3=O)s2)c1 (configuration not stated),AC50,[1],"35.5 µM [rising, single point]"
same,AC50,[2],"35.5 µM [rising, single point]"
O=C(Nc1cccnc1)c1ccc(N2CCCC2)c([N+](=O)[O-])c1,AC50,[1],"7.94 µM [rising, partial curve, poor fit]"
CCCCCC(C)NC(=S)NC(=O)c1cc(S(=O)(=O)N2CCOCC2)ccc1C (configuration not stated),AC50,[2],"17.8 µM [rising, partial curve, poor fit]"
CC(=O)c1ccc(NC(=O)c2sc(-n3nc(C)c(Cc4ccc5c(c4)OCO5)c3C)nc2C)cc1,AC50,[1],"11.2 µM [falling, partial curve, poor fit]"
same,AC50,[2],"15.8 µM [falling, partial curve]"
CCC1CCCCN1CCCNC(=O)c1ccc2c(c1)N(Cc1cccc(Cl)c1)C(=O)c1ccccc1S2(=O)=O (configuration not stated),AC50,[1],"0.178 µM [rising, full curve, poor fit]"
Cc1ccc(C)n1C1CCS(=O)(=O)C1 (configuration not stated),AC50,[1],"5.01 µM [falling, partial curve, poor fit]"
COc1ccc(O)c(/C=N/NC(=S)Nc2cccc(S(=O)(=O)N(C)C)c2)c1,AC50,[1],"3.16 µM [rising, single point]"
same,AC50,[2],"6.31 µM [rising, full curve]"
Cc1ccccc1N1C(=O)c2cccc([N+](=O)[O-])c2C1=O,AC50,[2],"2.24 µM [falling, partial curve]"

# Reformatted with bars between the fields: entries from further up.
smiles | measurement | setting | value
O=C(O)C1CCCNC1 (configuration not stated) | AC50 | [2] | 14.1 µM [falling, partial curve, poor fit]
Cc1cccc(Cc2cnc(N3C(=N)SC(c4ccccc4)C3=O)s2)c1 (configuration not stated) | AC50 | [1] | 35.5 µM [rising, single point]
CC(=O)c1ccc(NC(=O)c2sc(-n3nc(C)c(Cc4ccc5c(c4)OCO5)c3C)nc2C)cc1 | AC50 | [2] | 15.8 µM [falling, partial curve]
